Data as given in PubChem BioAssay AID686943 (Drosophila RNAi Screening Center, 2013).
The screen tested about 23,000 reagents; this is an unselected part of those with a known target gene and a result. 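Extra replicates exist only for a retested subset of genes; insulin dose and duration not given; both raised and lowered dpERK matter.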 The numbers tell different reagents against one gene apart. Names joined by + are all predicted targets of the reagent. Not stated in the record: the amount of reagent, the time to read-out.

Screen: 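Fly genes whose loss alters ERK activation after insulin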 (primary screen)
Cells: Drosophila S2R+ haemocyte-like cells expressing YFP-tagged ERK (Rolled)
Knock-down reagent: long dsRNA against Drosophila genes
Challenge: insulin stimulation versus unstimulated cells; dose and duration not given
Read-out: 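Per-plate z-scores of phospho-ERK immunostaining normalised to YFP-tagged ERK, measured with and without insulin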
Scale: replicate 1, z-score of dpERK with insulin and replicate 2, z-score of dpERK with insulin: higher = more active ERK per ERK-YFP after insulin; replicate 1, z-score of dpERK under basal conditions: higher = more basal active ERK per ERK-YFP; replicate 1, z-score of ERK-YFP with insulin: higher = more YFP-tagged ERK signal

| gene | dsRNA no. | replicate 1, z-score of dpERK with insulin | replicate 2, z-score of dpERK with insulin | replicate 1, z-score of dpERK under basal conditions | replicate 1, z-score of ERK-YFP with insulin |
| --- | --- | --- | --- | --- | --- |
| Mst84Dc (Male-specific RNA 84Dc) | 1 | -0.42 | 0.14 | 0.01 | 0.41 |
| CG1801 | 1 | 0.18 | 0.63 | 0.21 | -0.24 |
| eIF2Bdelta (eukaryotic translation initiation factor 2B subunit delta) | 1 | 0.37 | -0.16 | 0.09 | -0.77 |
| CG4281 | 1 | -0.1 | 0.24 | -0.72 | 0.39 |
| polo | 1 | -0.31 | 1.8 | 1.48 | 0.62 |
| polo | 2 | 0.66 | 1.03 | 1.5 | -1.33 |
| CG14625 | 1 | 0.32 | 1.11 | 0.41 | 1.22 |
| Arc42 (Activator-recruited cofactor subunit 42) | 1 | 0.36 | -0.62 | 2.14 | 0.03 |
| Arc42 (Activator-recruited cofactor subunit 42) | 2 | 0.3 | 0.53 | -0.15 | 0.22 |
| CG7457 | 1 | -0.57 | 0.26 | -0.41 | 0.71 |
| CG13972 | 1 | -0.72 | -1.47 | -1.1 | 0.24 |
| CG15705 | 1 | 1.06 | 0.25 | 0.43 | -0.19 |
| hrm (hermes) | 1 | -0.61 | -2.47 | -0.2 | 0.33 |
| Catsup (Catecholamines up) | 1 | -0.16 | -0.48 | 1.24 | 0.55 |
| CG9945 | 1 | 0.54 | -0.09 | -1.12 | 0.18 |
| CG15473 | 1 | 1.43 | 0.08 | 0.14 | -0.44 |
| Polr3F (RNA polymerase III subunit F) | 1 | -0.03 | -0.26 | -0.06 | -0.53 |
| Pif1A (PFTAIRE-interacting factor 1A) | 1 | 0.57 | 0.09 | 0.48 | -0.49 |
| Pif1A (PFTAIRE-interacting factor 1A) | 2 | 0.74 | -0.09 | -0.33 | 1.13 |
| CG9747 | 1 | -0.82 | -0.93 | 1.27 | -0.26 |
| CG1532 | 1 | -0.06 | 1.09 | -0.06 | 0.22 |
| eIF3b (eukaryotic translation initiation factor 3 subunit b) | 1 | -1.49 | -1.07 | -2.09 | -0.22 |
| dwg (deformed wings) | 1 | 0.74 | -0.01 | -0.21 | 1.28 |
| CG5846 | 1 | 0.07 | -0.02 | -0.04 | -0.44 |

Continued (6 carried over from the part before).
| gene | dsRNA no. | replicate 1, z-score of dpERK with insulin | replicate 2, z-score of dpERK with insulin | replicate 1, z-score of dpERK under basal conditions | replicate 1, z-score of ERK-YFP with insulin |
| --- | --- | --- | --- | --- | --- |
| Pif1A (PFTAIRE-interacting factor 1A) | 2 | 0.74 | -0.09 | -0.33 | 1.13 |
| CG9747 | 1 | -0.82 | -0.93 | 1.27 | -0.26 |
| CG1532 | 1 | -0.06 | 1.09 | -0.06 | 0.22 |
| eIF3b (eukaryotic translation initiation factor 3 subunit b) | 1 | -1.49 | -1.07 | -2.09 | -0.22 |
| dwg (deformed wings) | 1 | 0.74 | -0.01 | -0.21 | 1.28 |
| CG5846 | 1 | 0.07 | -0.02 | -0.04 | -0.44 |
| woc (without children) | 1 | 0.93 | -0.45 | -1.44 | 0.14 |
| CG33255 (retired record) + hpRNA:CR32205 + CR42838 | 1 | -0.05 | 0.21 | -0.99 | 0.42 |
| Ugt304A1 (UDP-glycosyltransferase family 304 member A1) | 1 | 0.06 | 0.14 | -0.83 | -0.04 |
| Or30a (Odorant receptor 30a) | 1 | -0.37 | 0.19 | -1.09 | 0.78 |
| CG34460 | 1 | -0.35 | -1.13 | 0.43 | 0.01 |
| CG46441 | 1 | 0.59 | 0.35 | 1.82 | 0.84 |
| ECSIT | 1 | -0.22 | -0.46 | 0.03 | 0.2 |
| CR33221 (pseudo) | 1 | 0.25 | 0.83 | 0.42 | 0.34 |
| Mal-B2 (Maltase B2) | 1 | 1.67 | 0.59 | -0.03 | 0.56 |
| CG4570 | 1 | 2.42 | 1.57 | 0.41 | -0.69 |
| CG12011 | 1 | -0.22 | -0.49 | 0.16 | 0.25 |
| CG11298 | 1 | 2.86 | 0.3 | 1.01 | -2.48 |
| ATP6AP2 (ATPase H+ transporting accessory protein 2) | 1 | 1.21 | 0.85 | -1.08 | 0 |
| CG16995 | 1 | 0.5 | -0.02 | -0.53 | 0.16 |
| CG4009 | 1 | -0.3 | 0.47 | 0.98 | 0.4 |
| CG4332 | 1 | -0.23 | 0.23 | -0.18 | 0.68 |
| CG15696 | 1 | 0.06 | 0.29 | -1.17 | -0.08 |
| CG13545 | 1 | 0.05 | 0.2 | 0.05 | 0.49 |
| CG11878 | 1 | -0.02 | 0.09 | -0.44 | 0.29 |
| retinin | 1 | 0.98 | 1.14 | 0.76 | -0.19 |
| CG10086 | 1 | 0.28 | 1.06 | -1.25 | -0.62 |
| SNRPG (Small nuclear ribonucleoprotein G) | 1 | -0.46 | 0.67 | -1.76 | -2.93 |
| gem (gemini) | 1 | -0.36 | -0.64 | 0.36 | 0.01 |
| gem (gemini) | 2 | -0.34 | -0.56 | -0.74 | -0.08 |
| CG14000 + bchs | 1 | -0.06 | -0.05 | -0.47 | -0.92 |
| eIF2beta (eukaryotic translation initiation factor 2 subunit beta) | 1 | 0.7 | 1.73 | -2.11 | -2.39 |
| agt (O-6-alkylguanine-DNA alkyltransferase) | 1 | 0.01 | 0.27 | 0.84 | -0.24 |
| CG13197 | 1 | -1.22 | 0.7 | -0.11 | 0.16 |
| lace | 1 | 1.29 | 2.63 | 0.3 | -0.22 |
| Tgt (tRNA-guanine transglycosylase) | 1 | 1.1 | 0.25 | -0.63 | -1.38 |
| CG33552 | 1 | 0.11 | 0.32 | -0.53 | 0.22 |
| sw (short wing) | 1 | 0.7 | -0.56 | 0.23 | 0.39 |
| KLHL18 (Kelch like family member 18) | 1 | -0.27 | -0.64 | -0.89 | 2.47 |
